The test has as its target T1, UHRF1-mCherry (UniProt Q96T88).
T1 sequence: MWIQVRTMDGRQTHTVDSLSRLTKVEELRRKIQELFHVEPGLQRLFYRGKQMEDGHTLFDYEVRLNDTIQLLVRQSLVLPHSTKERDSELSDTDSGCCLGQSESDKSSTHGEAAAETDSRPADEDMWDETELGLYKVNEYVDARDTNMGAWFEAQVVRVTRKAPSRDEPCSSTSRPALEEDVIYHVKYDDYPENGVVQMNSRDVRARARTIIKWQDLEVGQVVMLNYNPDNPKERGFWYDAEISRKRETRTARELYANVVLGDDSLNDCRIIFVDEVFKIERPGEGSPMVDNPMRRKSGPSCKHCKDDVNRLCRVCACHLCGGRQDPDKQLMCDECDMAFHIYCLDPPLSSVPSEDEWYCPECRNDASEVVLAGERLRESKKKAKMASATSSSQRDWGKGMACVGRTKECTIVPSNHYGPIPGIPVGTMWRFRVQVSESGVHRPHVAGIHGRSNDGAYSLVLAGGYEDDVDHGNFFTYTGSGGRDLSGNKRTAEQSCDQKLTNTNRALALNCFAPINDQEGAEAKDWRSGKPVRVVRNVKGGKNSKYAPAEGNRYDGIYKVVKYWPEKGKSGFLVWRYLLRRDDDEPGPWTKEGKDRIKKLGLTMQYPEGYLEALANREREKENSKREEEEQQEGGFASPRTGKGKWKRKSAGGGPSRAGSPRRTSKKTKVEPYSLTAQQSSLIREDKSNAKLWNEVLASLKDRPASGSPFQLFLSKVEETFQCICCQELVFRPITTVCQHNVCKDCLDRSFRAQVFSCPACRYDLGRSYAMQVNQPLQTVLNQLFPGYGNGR
Briefly: co-IP; HeLa cells (untransfected or transfected), lysed by freeze shock and sonication in PBS with protease inhibitors; 800 μg to 1 mg lysate with antibody (anti-mCherry, anti-eGFP or anti-UHRF1) 4 h at 4 °C, Dynabeads Protein A 1 h at 4 °C, five washes; Western blot. (In general: Immunoblotting shows a protein as a band on a membrane.)

Protein sequences, listed by entry. Tags and fused reporters are not part of them.
UniProt Q92993: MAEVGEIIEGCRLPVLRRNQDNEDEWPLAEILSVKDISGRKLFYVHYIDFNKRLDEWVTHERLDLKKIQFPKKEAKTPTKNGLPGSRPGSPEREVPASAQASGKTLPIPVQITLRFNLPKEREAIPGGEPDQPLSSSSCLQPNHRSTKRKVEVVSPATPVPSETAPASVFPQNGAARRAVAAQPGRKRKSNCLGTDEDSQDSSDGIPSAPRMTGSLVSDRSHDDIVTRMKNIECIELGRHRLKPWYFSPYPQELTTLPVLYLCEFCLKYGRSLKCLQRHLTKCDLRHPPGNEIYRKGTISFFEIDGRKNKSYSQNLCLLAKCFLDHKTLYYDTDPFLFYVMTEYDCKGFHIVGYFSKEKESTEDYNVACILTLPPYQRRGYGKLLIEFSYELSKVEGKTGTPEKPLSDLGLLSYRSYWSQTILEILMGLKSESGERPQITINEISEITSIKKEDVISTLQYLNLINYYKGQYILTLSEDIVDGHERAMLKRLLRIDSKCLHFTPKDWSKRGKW

These are yes or no findings as the source states them, for the method shown. In cells and extracts the contact can be indirect. Some entries that bind do so weakly or less than the wild type.

As for “TIP60-eGFP wild type (from UniProt Q92993 1-513)”, the binding entry is “binds”. In the case of “endogenous TIP60 (from UniProt Q92993 1-513)”, the binding entry is listed as “binds”.

The values are drawn from article PMC5740878.
